Reference: the supplement of paper PMC10849652
The list shows a part of the results. Residues, ends and D or L forms follow the SMILES beside them. *: point of attachment. Cbz = O=C(OCc1ccccc1)*

The chains behind the UniProt entries cited, without tags or fusion partners. Where a name states a change or a piece, a line headed by the entry shows the natural chain unless it says otherwise.
UniProt Q9NZV5, whole entry, looked up: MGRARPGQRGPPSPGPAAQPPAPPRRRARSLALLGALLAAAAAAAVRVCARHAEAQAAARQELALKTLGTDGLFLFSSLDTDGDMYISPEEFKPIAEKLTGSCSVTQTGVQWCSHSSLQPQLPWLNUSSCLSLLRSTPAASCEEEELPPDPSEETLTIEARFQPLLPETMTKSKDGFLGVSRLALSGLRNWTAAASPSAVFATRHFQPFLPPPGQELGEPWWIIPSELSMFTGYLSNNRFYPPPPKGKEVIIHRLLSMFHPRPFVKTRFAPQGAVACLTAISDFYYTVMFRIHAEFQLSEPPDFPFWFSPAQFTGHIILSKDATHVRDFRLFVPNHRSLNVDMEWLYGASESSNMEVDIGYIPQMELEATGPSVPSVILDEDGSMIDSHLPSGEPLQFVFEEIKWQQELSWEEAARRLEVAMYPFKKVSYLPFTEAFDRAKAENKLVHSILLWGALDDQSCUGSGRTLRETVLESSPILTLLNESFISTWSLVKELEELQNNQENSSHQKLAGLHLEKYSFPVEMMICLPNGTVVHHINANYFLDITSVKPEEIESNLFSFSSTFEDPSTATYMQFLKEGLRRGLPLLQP
UniProt Q9P0V9: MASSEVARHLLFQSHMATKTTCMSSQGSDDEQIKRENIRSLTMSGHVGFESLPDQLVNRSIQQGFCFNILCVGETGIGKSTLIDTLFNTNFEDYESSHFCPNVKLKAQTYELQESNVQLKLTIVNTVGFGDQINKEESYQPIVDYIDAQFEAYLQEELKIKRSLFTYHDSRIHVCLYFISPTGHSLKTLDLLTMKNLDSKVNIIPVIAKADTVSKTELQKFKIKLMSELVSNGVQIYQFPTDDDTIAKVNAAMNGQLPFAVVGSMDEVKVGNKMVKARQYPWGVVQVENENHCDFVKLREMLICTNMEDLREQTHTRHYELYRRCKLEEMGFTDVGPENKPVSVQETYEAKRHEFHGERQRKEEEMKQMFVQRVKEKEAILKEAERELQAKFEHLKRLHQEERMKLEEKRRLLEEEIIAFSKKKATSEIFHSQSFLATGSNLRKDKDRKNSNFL
UniProt A1X283: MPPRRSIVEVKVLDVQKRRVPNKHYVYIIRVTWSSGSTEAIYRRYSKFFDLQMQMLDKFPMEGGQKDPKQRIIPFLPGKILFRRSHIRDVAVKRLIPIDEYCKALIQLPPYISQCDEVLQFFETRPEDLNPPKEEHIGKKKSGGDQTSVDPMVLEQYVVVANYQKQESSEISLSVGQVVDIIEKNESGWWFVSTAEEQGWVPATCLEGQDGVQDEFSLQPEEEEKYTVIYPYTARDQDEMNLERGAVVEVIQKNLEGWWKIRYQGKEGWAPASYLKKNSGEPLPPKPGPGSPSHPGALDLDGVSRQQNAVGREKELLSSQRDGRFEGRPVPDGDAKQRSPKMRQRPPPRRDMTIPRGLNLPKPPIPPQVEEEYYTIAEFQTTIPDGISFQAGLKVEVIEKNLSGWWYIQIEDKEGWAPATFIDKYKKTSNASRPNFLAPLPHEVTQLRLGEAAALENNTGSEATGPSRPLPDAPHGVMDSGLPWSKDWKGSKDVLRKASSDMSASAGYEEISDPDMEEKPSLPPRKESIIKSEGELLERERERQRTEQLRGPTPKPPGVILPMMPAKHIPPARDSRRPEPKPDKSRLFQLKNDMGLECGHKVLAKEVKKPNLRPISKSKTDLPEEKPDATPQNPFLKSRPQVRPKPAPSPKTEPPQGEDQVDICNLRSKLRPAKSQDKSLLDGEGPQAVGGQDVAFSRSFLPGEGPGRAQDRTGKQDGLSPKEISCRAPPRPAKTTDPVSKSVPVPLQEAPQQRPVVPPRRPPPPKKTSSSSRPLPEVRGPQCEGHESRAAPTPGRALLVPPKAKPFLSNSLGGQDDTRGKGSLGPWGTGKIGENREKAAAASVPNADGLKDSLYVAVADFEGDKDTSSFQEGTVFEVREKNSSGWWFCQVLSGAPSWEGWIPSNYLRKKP
UniProt Q9Y6D0, whole entry, looked up: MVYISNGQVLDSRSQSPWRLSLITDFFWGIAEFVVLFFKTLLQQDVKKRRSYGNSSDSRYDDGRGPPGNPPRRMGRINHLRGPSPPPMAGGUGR
UniProt Q8WV19: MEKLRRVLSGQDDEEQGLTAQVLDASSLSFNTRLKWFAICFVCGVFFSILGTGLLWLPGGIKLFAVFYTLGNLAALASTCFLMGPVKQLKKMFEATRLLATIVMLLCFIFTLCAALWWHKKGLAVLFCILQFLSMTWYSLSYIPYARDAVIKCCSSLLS
UniProt Q16181: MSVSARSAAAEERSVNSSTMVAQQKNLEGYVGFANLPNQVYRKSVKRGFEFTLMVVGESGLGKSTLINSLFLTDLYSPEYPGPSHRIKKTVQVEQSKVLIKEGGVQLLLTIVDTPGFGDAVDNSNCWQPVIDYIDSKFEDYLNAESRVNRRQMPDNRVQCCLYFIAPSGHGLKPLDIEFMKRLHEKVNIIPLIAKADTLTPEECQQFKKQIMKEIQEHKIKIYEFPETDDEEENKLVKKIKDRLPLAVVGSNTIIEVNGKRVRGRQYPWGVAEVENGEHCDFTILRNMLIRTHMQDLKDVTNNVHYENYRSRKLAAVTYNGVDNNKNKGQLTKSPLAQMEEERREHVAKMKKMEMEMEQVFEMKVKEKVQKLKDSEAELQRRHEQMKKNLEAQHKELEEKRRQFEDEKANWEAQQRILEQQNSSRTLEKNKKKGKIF
UniProt Q9H0K1: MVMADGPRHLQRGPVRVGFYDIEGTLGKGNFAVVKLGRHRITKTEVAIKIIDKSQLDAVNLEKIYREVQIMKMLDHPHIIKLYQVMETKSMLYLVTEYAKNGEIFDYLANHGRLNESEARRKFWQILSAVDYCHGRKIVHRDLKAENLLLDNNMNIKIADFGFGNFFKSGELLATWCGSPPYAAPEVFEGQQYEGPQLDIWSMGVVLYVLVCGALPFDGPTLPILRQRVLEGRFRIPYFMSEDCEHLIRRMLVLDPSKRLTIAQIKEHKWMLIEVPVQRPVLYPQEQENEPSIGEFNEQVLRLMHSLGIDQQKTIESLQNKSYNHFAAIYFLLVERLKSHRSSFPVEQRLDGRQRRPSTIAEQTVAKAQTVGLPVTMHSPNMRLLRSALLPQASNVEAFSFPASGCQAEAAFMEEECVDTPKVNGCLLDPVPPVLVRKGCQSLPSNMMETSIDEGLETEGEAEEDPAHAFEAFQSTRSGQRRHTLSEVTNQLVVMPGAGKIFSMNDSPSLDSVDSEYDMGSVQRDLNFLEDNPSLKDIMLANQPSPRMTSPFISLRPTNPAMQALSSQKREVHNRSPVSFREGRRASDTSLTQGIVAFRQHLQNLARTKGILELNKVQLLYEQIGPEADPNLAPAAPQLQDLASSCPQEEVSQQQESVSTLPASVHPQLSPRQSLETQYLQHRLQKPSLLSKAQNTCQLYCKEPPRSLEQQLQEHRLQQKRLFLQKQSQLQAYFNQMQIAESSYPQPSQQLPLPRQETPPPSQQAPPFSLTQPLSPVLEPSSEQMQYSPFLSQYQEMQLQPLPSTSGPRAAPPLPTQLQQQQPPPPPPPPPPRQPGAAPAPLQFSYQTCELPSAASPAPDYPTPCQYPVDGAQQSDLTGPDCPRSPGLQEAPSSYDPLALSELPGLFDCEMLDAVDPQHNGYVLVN
UniProt Q96T21: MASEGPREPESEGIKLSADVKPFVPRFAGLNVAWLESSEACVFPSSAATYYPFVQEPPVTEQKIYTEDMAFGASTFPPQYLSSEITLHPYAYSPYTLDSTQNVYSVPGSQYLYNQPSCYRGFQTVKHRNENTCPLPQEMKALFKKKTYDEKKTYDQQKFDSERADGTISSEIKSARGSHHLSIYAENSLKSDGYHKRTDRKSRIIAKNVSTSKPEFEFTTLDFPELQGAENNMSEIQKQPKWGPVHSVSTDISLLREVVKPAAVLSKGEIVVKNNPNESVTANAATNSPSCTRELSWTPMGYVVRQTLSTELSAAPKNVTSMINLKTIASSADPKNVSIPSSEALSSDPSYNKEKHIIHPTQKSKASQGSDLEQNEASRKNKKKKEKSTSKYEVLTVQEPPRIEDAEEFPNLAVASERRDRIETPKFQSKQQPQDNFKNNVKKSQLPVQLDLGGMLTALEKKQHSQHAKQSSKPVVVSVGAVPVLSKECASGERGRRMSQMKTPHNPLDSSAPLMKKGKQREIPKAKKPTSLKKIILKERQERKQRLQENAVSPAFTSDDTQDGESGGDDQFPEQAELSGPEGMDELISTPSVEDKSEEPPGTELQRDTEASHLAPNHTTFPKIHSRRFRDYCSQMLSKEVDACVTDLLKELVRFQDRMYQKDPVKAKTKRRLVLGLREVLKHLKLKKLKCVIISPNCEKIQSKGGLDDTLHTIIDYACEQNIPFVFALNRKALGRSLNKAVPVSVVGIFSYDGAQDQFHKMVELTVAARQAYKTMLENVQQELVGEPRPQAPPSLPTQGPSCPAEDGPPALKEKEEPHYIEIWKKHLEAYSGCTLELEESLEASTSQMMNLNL
UniProt P84101: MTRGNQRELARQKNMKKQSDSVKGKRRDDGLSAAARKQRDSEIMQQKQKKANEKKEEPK
UniProt O75326: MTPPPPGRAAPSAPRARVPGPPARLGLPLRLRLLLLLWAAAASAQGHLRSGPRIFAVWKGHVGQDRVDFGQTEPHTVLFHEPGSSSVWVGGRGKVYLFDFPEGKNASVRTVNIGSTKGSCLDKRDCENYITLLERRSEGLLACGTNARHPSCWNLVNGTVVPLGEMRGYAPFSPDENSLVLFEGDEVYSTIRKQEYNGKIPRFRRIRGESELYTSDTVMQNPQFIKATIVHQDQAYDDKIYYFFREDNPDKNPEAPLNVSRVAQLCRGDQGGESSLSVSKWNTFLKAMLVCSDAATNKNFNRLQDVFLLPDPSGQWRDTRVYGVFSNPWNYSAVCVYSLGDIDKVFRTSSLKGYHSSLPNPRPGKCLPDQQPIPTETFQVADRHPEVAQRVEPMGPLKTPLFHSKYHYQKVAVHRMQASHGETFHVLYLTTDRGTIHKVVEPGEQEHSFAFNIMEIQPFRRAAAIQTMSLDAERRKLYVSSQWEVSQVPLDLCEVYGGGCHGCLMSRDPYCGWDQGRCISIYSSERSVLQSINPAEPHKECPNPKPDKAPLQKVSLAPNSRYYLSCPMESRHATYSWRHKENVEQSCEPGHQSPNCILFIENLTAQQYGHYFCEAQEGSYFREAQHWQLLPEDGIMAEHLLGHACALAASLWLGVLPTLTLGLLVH
UniProt Q86XK3: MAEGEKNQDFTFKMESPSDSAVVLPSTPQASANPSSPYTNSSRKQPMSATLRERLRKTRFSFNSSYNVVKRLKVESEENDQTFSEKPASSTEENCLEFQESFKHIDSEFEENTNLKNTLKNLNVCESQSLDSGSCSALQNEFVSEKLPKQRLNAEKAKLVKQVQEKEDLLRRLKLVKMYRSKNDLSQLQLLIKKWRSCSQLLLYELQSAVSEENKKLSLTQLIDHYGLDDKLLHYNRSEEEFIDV
UniProt Q8WVK7: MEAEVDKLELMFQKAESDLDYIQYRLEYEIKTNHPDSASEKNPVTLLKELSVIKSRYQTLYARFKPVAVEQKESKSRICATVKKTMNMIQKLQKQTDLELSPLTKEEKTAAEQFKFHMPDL
UniProt Q8WWX9, whole entry, looked up: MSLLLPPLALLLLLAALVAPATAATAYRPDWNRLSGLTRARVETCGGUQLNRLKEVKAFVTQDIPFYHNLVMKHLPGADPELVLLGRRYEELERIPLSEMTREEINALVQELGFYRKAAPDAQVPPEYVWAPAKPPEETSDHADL
UniProt Q8NDZ2: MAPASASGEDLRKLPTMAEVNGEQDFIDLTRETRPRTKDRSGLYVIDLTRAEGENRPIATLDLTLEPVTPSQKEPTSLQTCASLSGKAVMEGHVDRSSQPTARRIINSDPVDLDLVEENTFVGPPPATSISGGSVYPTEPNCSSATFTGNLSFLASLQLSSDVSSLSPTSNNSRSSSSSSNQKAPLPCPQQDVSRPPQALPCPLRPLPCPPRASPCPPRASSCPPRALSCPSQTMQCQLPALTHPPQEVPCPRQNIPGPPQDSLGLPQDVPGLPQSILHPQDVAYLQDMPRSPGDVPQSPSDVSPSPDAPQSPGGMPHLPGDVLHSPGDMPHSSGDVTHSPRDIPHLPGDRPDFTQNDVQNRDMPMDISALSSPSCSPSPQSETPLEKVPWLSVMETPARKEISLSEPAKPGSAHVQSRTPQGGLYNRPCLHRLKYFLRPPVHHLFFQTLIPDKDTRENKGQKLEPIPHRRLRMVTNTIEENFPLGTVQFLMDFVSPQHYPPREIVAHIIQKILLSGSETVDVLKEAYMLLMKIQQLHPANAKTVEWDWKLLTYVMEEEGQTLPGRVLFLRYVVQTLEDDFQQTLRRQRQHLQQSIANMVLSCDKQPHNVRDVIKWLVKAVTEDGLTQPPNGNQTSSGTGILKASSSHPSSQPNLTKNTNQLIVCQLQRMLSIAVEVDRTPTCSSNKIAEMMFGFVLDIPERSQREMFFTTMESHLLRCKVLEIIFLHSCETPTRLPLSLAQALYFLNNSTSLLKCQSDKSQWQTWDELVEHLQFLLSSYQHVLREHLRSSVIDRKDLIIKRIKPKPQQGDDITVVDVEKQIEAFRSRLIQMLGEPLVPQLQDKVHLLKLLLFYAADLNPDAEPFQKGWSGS

The targets below were run with CC(=O)c1cnc2ccc(-c3cc(Cl)c(O)c(Cl)c3)nc2c1N[C@H]1CC[C@H](CN(C)C)CC1 (assay: log2 fold change, soluble protein after heating vs DMSO (PISA); higher = thermal stabilisation; K562 cells, 10 uM, 30 min; active = over 0.2 and 3.5 SD of the protein, either way, in both replicates (recomputed)).
In short: (§1)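 Soluble protein was quantified by TMTpro 16plex LC-MS/MS after channel sums were equalised. It was obtained as the supernatant after 21,000xg for 90 min from pooled aliquots of K562 cells (2×10^6 cells/mL, 10 μM compound, 30 min) heated for 3 min across 48°C-58°C and extracted in PBS with 0.5% NP-40 at 4°C. Thermal stability values are relative to control samples and come from duplicates. They are given as log2 fold changes.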

Row | Target | log2 fold change
1 | SELENON (UniProt Q9NZV5) | inactive: -0.084
2 | SETD2 (UniProt Q9BYW2) | inactive: 0.051
3 | SEPTIN10 isoform 2 (UniProt Q9P0V9) | inactive: -0.042
4 | SH3PXD2B (UniProt A1X283) | inactive: -0.005
5 | SHB (UniProt Q15464) | inactive: -0.181
6 | SELENOK (UniProt Q9Y6D0) | inactive: -0.012
7 | SFT2D1 (UniProt Q8WV19) | inactive: -0.212
8 | SEMG2 (UniProt Q02383) | inactive: -0.148
9 | SERPINB7 (UniProt O75635) | inactive: -0.004
10 | SHROOM4 (UniProt Q9ULL8) | inactive: 0.239
11 | SFXN4 isoform 3 (UniProt Q6P4A7) | inactive: 0.055
12 | SHC1 (UniProt P29353) | inactive: -0.087
13 | SEPTIN2 (UniProt B5MCX3) | inactive: -0.189
14 | SEPTIN7 isoform 2 (UniProt Q16181) | inactive: 0.028

Each target was assayed with CC(C)(C)Cn1c(N)nc2ccc(-c3[nH]c(C(C)(C)C)nc3-c3ccc(F)cc3)nc21 [ralimetinib] in the same assay as above.
In short: as §1

Row | Target | log2 fold change
15 | SIK2 (UniProt Q9H0K1) | inactive: -0.05
16 | SELENON (UniProt Q9NZV5) | inactive: -0.039
17 | SF1 (UniProt H7BZT1) | inactive: -0.193
18 | SH3GL3 isoform 3 (UniProt Q99963) | inactive: 0.142
19 | SFT2D1 (UniProt Q8WV19) | inactive: 0.12
20 | SECISBP2 (UniProt Q96T21) | inactive: 0.245
21 | SERF2 (UniProt P84101) | inactive: -0.115
22 | SEMA7A (UniProt O75326) | inactive: 0.101
23 | SFR1 isoform 2 (UniProt Q86XK3) | inactive: -0.005
24 | SEPTIN2 (UniProt B5MCX3) | inactive: -0.313
25 | SERPINB5 (UniProt P36952) | inactive: 0.157
26 | SKA2 (UniProt Q8WVK7) | inactive: 0.278

Each target was assayed with CC(C)(O)CC(=O)NCCn1ccc2ncnc(Nc3ccc(Oc4cccc(C(F)(F)F)c4)c(Cl)c3)c21 in the same assay as above.
In short: as §1

Row | Target | log2 fold change
27 | SELENOM (UniProt Q8WWX9) | inactive: -0.127
28 | SEPTIN10 isoform 2 (UniProt Q9P0V9) | inactive: 0.037
29 | SH3PXD2B (UniProt A1X283) | inactive: 0.035
30 | SIVA1 (UniProt O15304) | inactive: -0.006
31 | SELENOK (UniProt Q9Y6D0) | inactive: 0.057
32 | SERPINA12 (UniProt Q8IW75) | inactive: 0.599
33 | SEMG2 (UniProt Q02383) | inactive: -0.011
34 | SERPINA3 (UniProt P01011) | inactive: 0.041
35 | SERF2 (UniProt P84101) | inactive: 0.008
36 | SEMA7A (UniProt O75326) | inactive: -0.216
37 | SFR1 isoform 2 (UniProt Q86XK3) | inactive: -0.098

These targets were tested with CC(C)C1=C2N=C(C=C(N2N=C1)NCC3=CC=CC=C3)NCCCCCCN in the same assay as above.
In short: as §1

Row | Target | log2 fold change
38 | SIK2 (UniProt Q9H0K1) | inactive: -0.058
39 | SERAC1 (UniProt Q96JX3) | inactive: 0.04
40 | SELENOM (UniProt Q8WWX9) | inactive: 0
41 | SEPTIN10 isoform 2 (UniProt Q9P0V9) | inactive: 0.044
42 | SGSH (UniProt P51688) | inactive: 0.066
43 | SH3PXD2B (UniProt A1X283) | inactive: 0.075
44 | SELENOK (UniProt Q9Y6D0) | inactive: 0.053
45 | SIMC1 (UniProt Q8NDZ2) | inactive: -0.423
46 | SERF2 (UniProt P84101) | inactive: 0.098
47 | SERPING1 isoform 3 (UniProt P05155) | inactive: 0.074
48 | SFXN4 isoform 3 (UniProt Q6P4A7) | inactive: -0.167
49 | SEPTIN7 isoform 2 (UniProt Q16181) | inactive: 0.043

The targets below were run with CC(C)C[C@@H](C=O)NC(=O)[C@H](CC(C)C)NC(=O)[C@H](CC(C)C)NC(=O)OCc1ccccc1 in the same assay as above.
In short: as §1

Row | Target | log2 fold change
50 | SIK2 (UniProt Q9H0K1) | inactive: 0.051
51 | SELENON (UniProt Q9NZV5) | inactive: 0.053
52 | SF1 (UniProt H7BZT1) | inactive: 0.106
53 | SH3GL3 isoform 3 (UniProt Q99963) | inactive: 0.12
54 | SFT2D1 (UniProt Q8WV19) | inactive: -0.052
55 | SECISBP2 (UniProt Q96T21) | inactive: 0.19
56 | SERF2 (UniProt P84101) | inactive: 0.115
57 | SEMA7A (UniProt O75326) | inactive: 0.093
58 | SFR1 isoform 2 (UniProt Q86XK3) | inactive: -0.032
59 | SEPTIN2 (UniProt B5MCX3) | inactive: 0.187
60 | SERPINB5 (UniProt P36952) | inactive: -0.349
61 | SKA2 (UniProt Q8WVK7) | inactive: 0.259

The targets below were run with CC1=C(C(CC(=O)N1)C2=CC=C(C=C2)C(F)(F)F)C(=O)NC3=C(C=C4C(=C3)C=NN4)F in the same assay as above.
In short: as §1

Row | Target | log2 fold change
62 | SERAC1 (UniProt Q96JX3) | inactive: -0.163
63 | SELENOM (UniProt Q8WWX9) | inactive: 0.026
64 | SEPTIN10 isoform 2 (UniProt Q9P0V9) | inactive: 0.037
65 | SGSH (UniProt P51688) | inactive: 0.069
66 | SELENOK (UniProt Q9Y6D0) | inactive: -0.123
67 | SERPINA12 (UniProt Q8IW75) | inactive: -0.735
68 | SECISBP2 (UniProt Q96T21) | inactive: 0.234
69 | SERF2 (UniProt P84101) | inactive: 0.032
70 | SHARPIN (UniProt Q9H0F6) | inactive: 0.255
